Data as given in patent publication US20260062455A1 (INSTITUT PASTEUR, published 2026).
Results are given in words; binding and its absence hold for the method and conditions named. Some results given as binding are weak or reduced against the parent protein; the word gives no strength. Tags and fused reporters may be left off the sequences shown.

Biological target: T1, MFSD2ACO expressed in HEK-293T.17 cells (LPC-analog transport assay) (human) (UniProt Q8NA29)
T1 sequence: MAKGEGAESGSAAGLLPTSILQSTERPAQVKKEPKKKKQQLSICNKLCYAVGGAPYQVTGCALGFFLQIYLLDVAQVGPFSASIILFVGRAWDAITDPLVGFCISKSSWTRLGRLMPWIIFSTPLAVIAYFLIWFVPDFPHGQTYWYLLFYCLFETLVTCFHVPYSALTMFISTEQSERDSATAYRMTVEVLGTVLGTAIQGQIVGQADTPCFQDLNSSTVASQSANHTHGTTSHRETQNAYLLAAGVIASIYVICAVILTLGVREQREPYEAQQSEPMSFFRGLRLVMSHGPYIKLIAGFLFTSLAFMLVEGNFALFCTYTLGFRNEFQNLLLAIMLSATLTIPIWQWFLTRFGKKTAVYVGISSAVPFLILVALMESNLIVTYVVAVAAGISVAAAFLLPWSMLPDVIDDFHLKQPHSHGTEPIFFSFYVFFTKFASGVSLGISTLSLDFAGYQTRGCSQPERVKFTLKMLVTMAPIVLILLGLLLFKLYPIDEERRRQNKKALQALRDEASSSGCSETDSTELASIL
Test: FIG. 4F legend; purified soluble fragment added to cells expressing MFSD2A, with binding inferred from transport inhibition

B1: SYNC2SU-CO (soluble thermostable consensus SYNC2 fragment with C43S), purified, C-terminal EPEA-tag (ligand)
chain: AYRHPDFPLLEKAQQLLQSTGSPYSTNSWLCTSSSTETPGTAYPASPREWTSIEAELHISYRWDPNLKGLMRPANSLLSTVKQDFPDIRQKPPIFGPIFTNINLMGIAPICVTAKRKNGTNVGTLPSTVCNVTFTVDPNQQTYQTYTHNQFRHQPRFPKPPNITFPQGTLLDKSTRFCQGRPSSCSTRNFWFRPADYNQCLQISNLSSTAEWVLLDQTRNSLFWENKTKGANQSQTPCVQVLAGMTIATSYLGISAVSEFFGTSLTPLFHFHISTCLKTQGAFYICGQSIHQCLPSNWTGTCTIGYVTPDIFIAPEPEA
With B1 the binding was “binds”.
